Source: ChEMBL document CHEMBL3988442, “University of Dundee, Small-Polar-MMV Screening Library” (2021).

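Viability assay of Plasmodium falciparum sporozoites; the read-out is not stated. The concentration is filed as 10 mM, unlikely as a test dose, so the dose is not known. Higher reads as lower viability (inferred: compounds with an IC50 in retests scored well above the rest). Strong results were mostly tested again. About 34,000 compounds were tested under these conditions; 0.84% (about 280) showed 50% or more at least once.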

The filed quantity is “Percent Effect” (%).
How 0% and 100% were set is not recorded. Most values in the screen are low, and negative values occur.
Compounds were drawn at random from those tested, without regard to their results.
Two or more numbers in one place are separate tests of the same structure; such repeats can differ widely.

| compound | effect |
|---|---|
| `Cc1ncnc2c1CCN(Cc1ccccn1)CC2.O=C(O)C(F)(F)F.O=C(O)C(F)(F)F` | -0.4677 |
| `Cc1ccc(NC(=O)C2CSCN2C(=O)c2cnccn2)cc1C` (stereo unspecified) | -0.6187 |
| `Cc1ccc(NC2CCN(C(=O)CCc3ccccc3)CC2)nn1` | 9.632 |
| `CN(Cc1nnc2n1CCC2)C(=O)c1ccc2c(c1)OCCCO2` | 5.538 |
| `Cc1ccsc1CNC(=O)N1CCC(Cc2cnn(C)c2)C1` (stereo unspecified) | -0.2612 |
| `Cc1cnc(C(C)(C)NC(=O)NCc2ccon2)s1` | -4.783 |
| `CC(C)N1CCOCC2(CCN(c3cnccn3)CC2)C1.O=C(O)C(F)(F)F` | 0.7666 |
| `CN1CCN(C(=O)C2CN(Cc3cc4ccccc4o3)CCN2)CC1` (stereo unspecified) | -9.474 |
| `CCC(O)CN1CCN(C(=O)Cc2cc(C)ccc2OC)CC1` (stereo unspecified) | -3.781 |
| `O=C(O)C(F)(F)F.[H][C@@]12CCN(Cc3ccc(OC)cc3)C[C@]1(C(=O)NCCOC)CCO2` | -9.869 |
| `COc1ccc(OCCN(C)Cc2nc3c(cnn3C)c(=O)[nH]2)cc1` | 6.25 |
| `Cc1cnc(-c2nc(C3CCCN(Cc4cccs4)C3)no2)cn1` (stereo unspecified) | 10.42 |
| `CC(=O)N1CCN(c2cnccn2)CC(CO)C1` (stereo unspecified) | 12.93 |
| `CC(=O)N(C)C1CCCc2nc(C)sc21` (stereo unspecified) | -9.212 |
| `Cn1c2c(ccc1=O)CC(Nc1ncc(F)cn1)CC2.O=C(O)C(F)(F)F` (stereo unspecified) | -15.81 |
| `COc1cc(CNC(=O)c2c(C)noc2C(C)C)ccn1` | 4.906 |
| `CCc1nc(CC(=O)N2CCn3c(C)nnc3C2)cs1` | 10.38 |
| `COc1c(C)cnc(CN2CCOC(Cn3nc(C)nc3C)C2)c1C` (stereo unspecified) | -9.128 |
| `[H][C@]12CC[C@]([H])(CN(S(=O)(=O)N(C)C)C1)N(C(=O)c1cnc(C)nc1C)C2` | 3.219 |
| `Cn1cnc(S(=O)(=O)N2CCCC2c2cnccn2)c1` (stereo unspecified) | -5.952 |
| `Cc1ccc(NS(=O)(=O)c2cc3c(c(C(=O)O)c2)OCCO3)c(F)c1` | 18.34 |
| `O=C(O)C(F)(F)F.[H][C@@]12C[C@H](C(=O)NC)[C@@]([H])(CN(Cc3ccc(C)cc3)C1)O2` | 7.106 |
| `[H][C@]12CCC[C@@]1(COC)CN(C(=O)Cc1ccco1)C2` | 3.322 |
| `CC(C)CC(=O)N1CCCn2cnc(CN3CCCC3=O)c2C1` | 6.92 |
| `[H][C@]12CC[C@]([H])(CN(c3cnccn3)C1)N(C(=O)c1sc(NC)nc1C)C2` | 2.982 |
| `CN1CC2(CNCCN(C(=O)Nc3ccccc3)C2)CC1=O.O=C(O)C(F)(F)F` (stereo unspecified) | 10.27 |
| `COc1cccc2c1OCC(Cc1cc(C(=O)N3CCCC3)ccn1)C2` (stereo unspecified) | 4.118 |
| `COCCNC(=O)C(C)N1CCN(C)CC1.O=C(O)C(=O)O` (stereo unspecified) | -5.307 |
| `NC(=O)C1(CNC(=O)CCc2ccc(Cl)s2)CCOCC1` | -4.042 |
| `Cc1ccnc(C2(C)CCCN2S(=O)(=O)c2ccccc2)n1` (stereo unspecified) | -1.476 |
| `Cc1ccc(C(=O)N2CCCC(CNS(=O)(=O)C(C)C)C2)cc1` (stereo unspecified) | -2.517 and -8.113 |
| `[H][C@@]12C[C@@H](OC)C[C@]1([H])CN(C(=O)c1cccc3c1OCCO3)C2` | -60.42 |
| `CN(C)CCn1c2c(ccc1=O)CCN(Cc1cnn(C)c1)CC2.O=C(O)C(F)(F)F.O=C(O)C(F)(F)F` | 19.78 |
| `CCc1ccsc1CNC(=O)CNC(=O)C(C)(C)C` | -10.1 |
| `CC(=O)N1CCCC1CCc1ccc(Cl)nn1` (stereo unspecified) | -1.155 |
| `Cc1cc(C)nc(N2CCC(CNC(=O)c3ccccn3)CC2)n1` | 1.904 |
| `COCCN1CCC(C(=O)c2cc(F)ccc2F)CC1` | 13.09 |
| `CCC(C)(O)CNc1ccc(S(=O)(=O)C(F)F)cc1` (stereo unspecified) | -18.31 |
| `[H][C@@]12CCN(Cc3ccco3)C[C@@]1([H])[C@H](C(=O)NC1CC1)CCO2` | 0.4296 |
| `CCNC(=O)N(C)C(c1cccc(F)c1)c1ccccn1` (stereo unspecified) | 3.107 |
| `COc1nc(C)cc(C)c1CNC(=O)N(C)Cc1cnn(C)c1` | -1.253 |
| `Cc1nccc(C2CN(C(=O)c3cncnc3)C2)n1` | 1.124 |
| `Cn1nnc2c1C(COCC1CC1)CN(Cc1ccoc1)C2.O=C(O)C(F)(F)F` (stereo unspecified) | -8.759 |
| `COc1cccc(OC)c1-c1ccnc2cc(CC(=O)N(C)C)nn12` | -8.383 |
| `[H][C@@]12CS(=O)(=O)C[C@]1([H])N(C(=O)c1cnc(C)nc1)CCN2CCC` | -2.536 |
| `O=C(Cc1ccc(F)cc1)N1CCN(CC(O)c2ccccc2)CC1` (stereo unspecified) | 7.266 |
| `c1cncc(-c2noc(CN3CCOC(Cn4cccn4)C3)n2)c1` (stereo unspecified) | 0.0331 |
| `O=C(c1ccc(Cn2ccccc2=O)o1)N1CCSCC1` | 9.383 |
| `CC(=O)N1CCn2c(C(=O)N(C)C)cnc2C1` | -9.112 |
| `Cc1cnc(CN2CCCC(c3nc4ccccc4n3C(C)C)C2)o1` (stereo unspecified) | -6.272 |
| `Cc1cnn(CC2CCCN2CC(=O)N(C)CCC#N)c1` (stereo unspecified) | 4.353 |
| `CC1CCCN(CCNC(=O)c2ccn(-c3cccc(F)c3)n2)C1` (stereo unspecified) | -4.489 |
| `Cc1nn(C)c(Cl)c1C1CCCN1C(=O)c1cc(Cl)c[nH]1` (stereo unspecified) | 7.52 |
| `Cn1cc(CN2CCC(c3cc(COc4ccc(Cl)cc4)[nH]n3)C2)cn1` (stereo unspecified) | 6.086 |
| `CN(C)C(=O)COCC1CN(Cc2ccco2)Cc2ncn(C)c21.O=C(O)C(F)(F)F.O=C(O)C(F)(F)F` (stereo unspecified) | 11.27 |
| `Fc1ccc(-c2cnc(CNC3CCc4ncnn4C3)o2)cc1` (stereo unspecified) | -9.576 |
| `CN(Cc1cccc(F)c1)C1CCN(CCc2ccccn2)CC1` | 6.266 |
| `COc1c(CNC2CCCOc3ccccc32)c(C)nn1C` (stereo unspecified) | -10.15 and 3.985 and 12.02 |
| `Cc1cc(C)n(CC2CCCN2C(=O)CCc2ccco2)n1` (stereo unspecified) | 8.044 |
| `CC(=O)N1CCN(Cc2coc(-c3cccc(F)c3)n2)CC1` | -29.73 and -43.84 and -27.15 |
| `Cc1ncsc1CNc1ccn(Cc2ccccc2)n1` | -17.14 |
| `CCc1csc(C2CCCN(C(=O)c3ccncc3)C2)n1` (stereo unspecified) | -13.31 |
| `CN(Cc1ccsc1)C(=O)c1cc2c([nH]c1=O)CCCC2=O` | -4.595 |
| `Cc1ncsc1CN1CCN(C2CCOCC2)CC(C(N)=O)C1` (stereo unspecified) | 0.3933 |
| `Cc1ccc(C2C3=C(COC3=O)Nc3[nH]nc(C)c32)cc1C` (stereo unspecified) | 14.04 |
| `[H][C@]12CC[C@]([H])(CN(C(=O)c3ccncc3)C1)N(C(=O)CN(C)CCOC)C2` | 9.657 |

Repeated from the top, 5 entries:

* Cc1ncnc2c1CCN(Cc1ccccn1)CC2.O=C(O)C(F)(F)F.O=C(O)C(F)(F)F : -0.4677%
* Cc1ccc(NC(=O)C2CSCN2C(=O)c2cnccn2)cc1C (stereo unspecified) : -0.6187%
* Cc1ccc(NC2CCN(C(=O)CCc3ccccc3)CC2)nn1 : 9.632%
* CN(Cc1nnc2n1CCC2)C(=O)c1ccc2c(c1)OCCCO2 : 5.538%
* Cc1ccsc1CNC(=O)N1CCC(Cc2cnn(C)c2)C1 (stereo unspecified) : -0.2612%